Test [1] has as its target T1, CLCA4-Flag (chloride channel accessory 4) (UniProt Q14CN2).
T1 sequence: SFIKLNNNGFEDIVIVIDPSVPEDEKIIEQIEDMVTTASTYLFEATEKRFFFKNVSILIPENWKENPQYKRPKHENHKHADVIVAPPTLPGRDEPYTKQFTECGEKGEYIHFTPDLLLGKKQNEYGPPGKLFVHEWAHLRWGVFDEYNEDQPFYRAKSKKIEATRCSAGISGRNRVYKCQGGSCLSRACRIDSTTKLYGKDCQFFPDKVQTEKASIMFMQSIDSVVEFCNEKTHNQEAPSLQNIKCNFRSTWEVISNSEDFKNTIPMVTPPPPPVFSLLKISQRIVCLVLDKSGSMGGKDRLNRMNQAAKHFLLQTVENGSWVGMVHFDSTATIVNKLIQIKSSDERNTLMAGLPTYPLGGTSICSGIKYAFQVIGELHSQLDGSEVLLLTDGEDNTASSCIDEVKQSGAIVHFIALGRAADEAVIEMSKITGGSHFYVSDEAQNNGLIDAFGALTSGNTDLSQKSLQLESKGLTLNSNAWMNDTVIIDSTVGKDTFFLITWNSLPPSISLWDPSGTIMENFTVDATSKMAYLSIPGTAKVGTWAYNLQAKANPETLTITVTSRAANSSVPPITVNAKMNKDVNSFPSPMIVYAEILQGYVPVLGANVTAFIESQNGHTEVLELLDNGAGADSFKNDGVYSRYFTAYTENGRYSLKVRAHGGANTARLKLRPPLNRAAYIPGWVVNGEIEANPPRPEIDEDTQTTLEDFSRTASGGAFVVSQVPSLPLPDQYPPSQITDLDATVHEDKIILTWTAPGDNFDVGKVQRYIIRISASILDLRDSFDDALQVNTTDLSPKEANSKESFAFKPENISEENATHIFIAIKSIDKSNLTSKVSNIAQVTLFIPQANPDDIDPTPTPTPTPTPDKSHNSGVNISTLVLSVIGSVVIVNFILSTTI
The test can be described thus: co-IP; cell lysates in IP lysis buffer (50 mM Tris-HCl pH 7.4, 150 mM NaCl, 1% NP-40, 0.5% sodium deoxycholate, 0.1% SDS), antibody 2 h at 4 °C, protein A/G agarose; anti-Flag (CLCA4) or anti-HA (vimentin), normal IgG as negative control; Western blotting.

By UniProt entry, the sequences of proteins in these tests, tags left out.
UniProt P08670: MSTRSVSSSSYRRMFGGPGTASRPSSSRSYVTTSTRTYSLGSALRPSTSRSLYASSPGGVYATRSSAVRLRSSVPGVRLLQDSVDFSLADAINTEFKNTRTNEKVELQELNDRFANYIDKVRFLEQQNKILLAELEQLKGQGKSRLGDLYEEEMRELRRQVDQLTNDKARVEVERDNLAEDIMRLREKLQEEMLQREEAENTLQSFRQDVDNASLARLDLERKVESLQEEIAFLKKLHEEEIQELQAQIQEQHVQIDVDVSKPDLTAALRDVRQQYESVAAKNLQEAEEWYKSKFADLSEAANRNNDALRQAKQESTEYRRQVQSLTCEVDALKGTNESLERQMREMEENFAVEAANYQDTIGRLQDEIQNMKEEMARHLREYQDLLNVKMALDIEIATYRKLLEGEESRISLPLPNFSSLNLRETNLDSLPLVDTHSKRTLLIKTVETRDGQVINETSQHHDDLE

A further test addresses vimentin-HA (UniProt P08670). Described as above.

These are yes or no findings as the source states them, for the method shown. Binding seen in cells or lysates may run through a third protein. Some binding calls cover weakened binding; strength is not graded here. Tags and fused reporters may be left off the sequences shown.

On to “vimentin (found in the immunoprecipitate of CLCA4) (from UniProt P08670 1-466)”, for which the binding entry in test [1] is listed as “binds”.

B1: CLCA4-Flag (chloride channel accessory 4) (protein, UniProt Q14CN2 22-919)
chain: SFIKLNNNGFEDIVIVIDPSVPEDEKIIEQIEDMVTTASTYLFEATEKRFFFKNVSILIPENWKENPQYKRPKHENHKHADVIVAPPTLPGRDEPYTKQFTECGEKGEYIHFTPDLLLGKKQNEYGPPGKLFVHEWAHLRWGVFDEYNEDQPFYRAKSKKIEATRCSAGISGRNRVYKCQGGSCLSRACRIDSTTKLYGKDCQFFPDKVQTEKASIMFMQSIDSVVEFCNEKTHNQEAPSLQNIKCNFRSTWEVISNSEDFKNTIPMVTPPPPPVFSLLKISQRIVCLVLDKSGSMGGKDRLNRMNQAAKHFLLQTVENGSWVGMVHFDSTATIVNKLIQIKSSDERNTLMAGLPTYPLGGTSICSGIKYAFQVIGELHSQLDGSEVLLLTDGEDNTASSCIDEVKQSGAIVHFIALGRAADEAVIEMSKITGGSHFYVSDEAQNNGLIDAFGALTSGNTDLSQKSLQLESKGLTLNSNAWMNDTVIIDSTVGKDTFFLITWNSLPPSISLWDPSGTIMENFTVDATSKMAYLSIPGTAKVGTWAYNLQAKANPETLTITVTSRAANSSVPPITVNAKMNKDVNSFPSPMIVYAEILQGYVPVLGANVTAFIESQNGHTEVLELLDNGAGADSFKNDGVYSRYFTAYTENGRYSLKVRAHGGANTARLKLRPPLNRAAYIPGWVVNGEIEANPPRPEIDEDTQTTLEDFSRTASGGAFVVSQVPSLPLPDQYPPSQITDLDATVHEDKIILTWTAPGDNFDVGKVQRYIIRISASILDLRDSFDDALQVNTTDLSPKEANSKESFAFKPENISEENATHIFIAIKSIDKSNLTSKVSNIAQVTLFIPQANPDDIDPTPTPTPTPTPDKSHNSGVNISTLVLSVIGSVVIVNFILSTTI
Consider B1, for which, in the test with vimentin-HA, the binding entry is on record as “binds”.

(Values after paper PMC12886529.)
